T1: PABPN1-Flag (UniProt Q86U42)
T1 sequence: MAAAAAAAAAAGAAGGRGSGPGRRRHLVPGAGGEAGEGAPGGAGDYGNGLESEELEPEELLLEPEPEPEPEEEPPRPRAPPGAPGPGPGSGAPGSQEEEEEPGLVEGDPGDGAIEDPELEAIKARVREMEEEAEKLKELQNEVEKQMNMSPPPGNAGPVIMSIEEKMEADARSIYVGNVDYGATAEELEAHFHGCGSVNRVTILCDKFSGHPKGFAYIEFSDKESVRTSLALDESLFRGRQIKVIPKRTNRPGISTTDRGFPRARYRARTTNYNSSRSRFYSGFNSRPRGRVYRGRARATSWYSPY

T2: ZC3H11A(3C>A)-Flag (human) (UniProt O75152)
T2 sequence: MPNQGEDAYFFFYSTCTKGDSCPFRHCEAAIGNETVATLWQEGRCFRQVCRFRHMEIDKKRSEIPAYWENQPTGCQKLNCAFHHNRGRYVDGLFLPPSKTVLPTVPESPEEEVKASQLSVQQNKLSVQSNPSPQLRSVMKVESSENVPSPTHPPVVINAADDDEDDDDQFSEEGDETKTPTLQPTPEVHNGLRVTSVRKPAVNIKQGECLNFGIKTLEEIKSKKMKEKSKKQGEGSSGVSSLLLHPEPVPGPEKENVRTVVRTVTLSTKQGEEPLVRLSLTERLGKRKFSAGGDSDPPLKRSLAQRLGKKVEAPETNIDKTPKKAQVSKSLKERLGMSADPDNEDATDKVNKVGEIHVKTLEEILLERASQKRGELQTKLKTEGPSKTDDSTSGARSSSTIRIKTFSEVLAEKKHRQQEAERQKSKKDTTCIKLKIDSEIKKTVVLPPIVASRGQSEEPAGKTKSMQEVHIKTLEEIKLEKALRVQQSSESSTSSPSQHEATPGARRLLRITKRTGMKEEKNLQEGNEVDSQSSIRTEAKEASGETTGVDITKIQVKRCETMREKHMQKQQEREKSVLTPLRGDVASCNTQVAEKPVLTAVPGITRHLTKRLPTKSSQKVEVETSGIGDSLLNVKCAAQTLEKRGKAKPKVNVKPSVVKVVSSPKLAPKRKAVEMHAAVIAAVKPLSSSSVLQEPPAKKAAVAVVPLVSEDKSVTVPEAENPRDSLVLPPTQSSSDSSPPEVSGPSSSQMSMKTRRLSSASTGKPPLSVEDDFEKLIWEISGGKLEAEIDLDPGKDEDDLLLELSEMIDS

B1: ZC3H11A(dZF)-HA (domain or fragment, UniProt O75152 87-810)
chain: GRYVDGLFLPPSKTVLPTVPESPEEEVKASQLSVQQNKLSVQSNPSPQLRSVMKVESSENVPSPTHPPVVINAADDDEDDDDQFSEEGDETKTPTLQPTPEVHNGLRVTSVRKPAVNIKQGECLNFGIKTLEEIKSKKMKEKSKKQGEGSSGVSSLLLHPEPVPGPEKENVRTVVRTVTLSTKQGEEPLVRLSLTERLGKRKFSAGGDSDPPLKRSLAQRLGKKVEAPETNIDKTPKKAQVSKSLKERLGMSADPDNEDATDKVNKVGEIHVKTLEEILLERASQKRGELQTKLKTEGPSKTDDSTSGARSSSTIRIKTFSEVLAEKKHRQQEAERQKSKKDTTCIKLKIDSEIKKTVVLPPIVASRGQSEEPAGKTKSMQEVHIKTLEEIKLEKALRVQQSSESSTSSPSQHEATPGARRLLRITKRTGMKEEKNLQEGNEVDSQSSIRTEAKEASGETTGVDITKIQVKRCETMREKHMQKQQEREKSVLTPLRGDVASCNTQVAEKPVLTAVPGITRHLTKRLPTKSSQKVEVETSGIGDSLLNVKCAAQTLEKRGKAKPKVNVKPSVVKVVSSPKLAPKRKAVEMHAAVIAAVKPLSSSSVLQEPPAKKAAVAVVPLVSEDKSVTVPEAENPRDSLVLPPTQSSSDSSPPEVSGPSSSQMSMKTRRLSSASTGKPPLSVEDDFEKLIWEISGGKLEAEIDLDPGKDEDDLLLELSEMIDS
B2: ZC3H11A(C37A)-HA (protein, UniProt O75152 1-810)
chain: T2 sequence with A8C, A66C
B3: ZC3H11A(3C>A)-HA (protein, UniProt O75152 1-810)
chain: T2 sequence
B4: ZC3H11A(C66A)-HA (protein, UniProt O75152 1-810)
chain: T2 sequence with A8C, A37C
B5: ZC3H11A(C8A)-HA (protein, UniProt O75152 1-810)
chain: T2 sequence with A37C, A66C
B6: THOC1-HA (protein, UniProt Q96FV9 1-657)
chain: MSPTPPLFSLPEARTRFTKSTREALNNKNIKPLLSTFSQVPGSENEKKCTLDQAFRGILEEEIINHSSCENVLAIISLAIGGVTEGICTASTPFVLLGDVLDCLPLDQCDTIFTFVEKNVATWKSNTFYSAGKNYLLRMCNDLLRRLSKSQNTVFCGRIQLFLARLFPLSEKSGLNLQSQFNLENVTVFNTNEQESTLGQKHTEDREEGMDVEEGEMGDEEAPTTCSIPIDYNLYRKFWSLQDYFRNPVQCYEKISWKTFLKYSEEVLAVFKSYKLDDTQASRKKMEELKTGGEHVYFAKFLTSEKLMDLQLSDSNFRRHILLQYLILFQYLKGQVKFKSSNYVLTDEQSLWIEDTTKSVYQLLSENPPDGERFSKMVEHILNTEENWNSWKNEGCPSFVKERTSDTKPTRIIRKRTAPEDFLGKGPTKKILMGNEELTRLWNLCPDNMEACKSETREHMPTLEEFFEEAIEQADPENMVENEYKAVNNSNYGWRALRLLARRSPHFFQPTNQQFKSLPEYLENMVIKLAKELPPPSEEIKTGEDEDEEDNDALLKENESPDVRRDKPVTGEQIEVFANKLGEQWKILAPYLEMKDSEIRQIECDSEDMKMRAKQLLVAWQDQEGVHATPENLINALNKSGLSDLAESLTNDNETNS
B7: THOC5-HA (protein, UniProt Q13769 1-683)
chain: MSSESSKKRKPKVIRSDGAPAEGKRNRSDTEQEGKYYSEEAEVDLRDPGRDYELYKYTCQELQRLMAEIQDLKSRGGKDVAIEIEERRIQSCVHFMTLKKLNRLAHIRLKKGRDQTHEAKQKVDAYHLQLQNLLYEVMHLQKEITKCLEFKSKHEEIDLVSLEEFYKEAPPDISKAEVTMGDPHQQTLARLDWELEQRKRLAEKYRECLSNKEKILKEIEVKKEYLSSLQPRLNSIMQASLPVQEYLFMPFDQAHKQYETARHLPPPLYVLFVQATAYGQACDKTLSVAIEGSVDEAKALFKPPEDSQDDESDSDAEEEQTTKRRRPTLGVQLDDKRKEMLKRHPLSVMLDLKCKDDSVLHLTFYYLMNLNIMTVKAKVTTAMELITPISAGDLLSPDSVLSCLYPGDHGKKTPNPANQYQFDKVGILTLSDYVLELGHPYLWVQKLGGLHFPKEQPQQTVIADHSLSASHMETTMKLLKTRVQSRLALHKQFASLEHGIVPVTSDCQYLFPAKVVSRLVKWVTVAHEDYMELHFTKDIVDAGLAGDTNLYYMALIERGTAKLQAAVVLNPGYSSIPPVFQLCLNWKGEKTNSNDDNIRAMEGEVNVCYKELCGPWPSHQLLTNQLQRLCVLLDVYLETESHDDSVEGPKEFPQEKMCLRLFRGPSRMKPFKYNHPQGFFSHR

Where a chain is given by its changes, count along the chain named. Names and notes keep the numbering of the source. Results are given in words; binding and its absence hold for the method and conditions named. Binding seen in cells or lysates may run through a third protein. Some entries that bind do so weakly or less than the wild type. Sequences can lack the tags named with a protein.

The target of one experiment is T1, PABPN1-Flag. In words: co-IP.
In the case of B1, the binding entry is listed as “no binding”.

Regarding B2, the binding result is listed as “binds”.

On to B3, for which the binding entry was “no binding”.

Regarding B4, the binding result is reported as “no binding”.

B5: the binding entry is listed as “no binding”.

The next experiment has as its target T2, ZC3H11A(3C>A)-Flag (human). In words: co-IP.
Consider B6, for which the binding entry is “binds”.

On to B7, for which the binding result is “binds”.

In the next experiment the target is ZC3H11A(wt)-Flag (human) (UniProt O75152). Kind of experiment: co-IP.
B6: the binding result is “binds”.

Regarding B7, the binding entry is listed as “binds”.

(Values after paper PMC10371797.)
